These are yes or no findings as the source states them, for the method shown. Binding seen in cells or lysates may run through a third protein. Some results given as binding are weak or reduced against the parent protein; the word gives no strength. For some of these results: Where a sequence is shown, tags or fusion partners need not be part of it.

The chains behind the UniProt entries cited, without tags or fusion partners.
UniProt Q6ZNE5: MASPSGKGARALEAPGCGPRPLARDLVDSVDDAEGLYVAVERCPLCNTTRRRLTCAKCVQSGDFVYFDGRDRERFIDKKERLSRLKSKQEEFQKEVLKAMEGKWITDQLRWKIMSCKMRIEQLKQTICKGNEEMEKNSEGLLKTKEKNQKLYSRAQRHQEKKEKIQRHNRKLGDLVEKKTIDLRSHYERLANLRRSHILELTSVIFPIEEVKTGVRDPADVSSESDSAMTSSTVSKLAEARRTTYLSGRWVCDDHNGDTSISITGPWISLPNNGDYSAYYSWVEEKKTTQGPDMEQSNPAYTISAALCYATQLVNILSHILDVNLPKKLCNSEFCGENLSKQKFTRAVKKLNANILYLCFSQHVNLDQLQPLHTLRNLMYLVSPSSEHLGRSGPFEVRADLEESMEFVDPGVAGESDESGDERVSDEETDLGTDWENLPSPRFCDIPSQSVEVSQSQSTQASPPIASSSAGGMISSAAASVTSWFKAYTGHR
UniProt P56962: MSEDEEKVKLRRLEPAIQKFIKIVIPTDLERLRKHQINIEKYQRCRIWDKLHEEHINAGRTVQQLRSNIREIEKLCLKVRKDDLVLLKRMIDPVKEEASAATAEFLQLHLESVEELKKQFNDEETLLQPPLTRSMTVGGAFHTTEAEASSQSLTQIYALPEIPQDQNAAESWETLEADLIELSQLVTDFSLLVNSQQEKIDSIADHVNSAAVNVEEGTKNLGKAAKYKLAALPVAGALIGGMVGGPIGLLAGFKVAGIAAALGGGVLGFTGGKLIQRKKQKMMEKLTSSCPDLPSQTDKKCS

Experiment [1] concerns the target T1, GST-CbpFR6 (Streptococcus pneumoniae R6) (UniProt Q8DR52).
T1 sequence: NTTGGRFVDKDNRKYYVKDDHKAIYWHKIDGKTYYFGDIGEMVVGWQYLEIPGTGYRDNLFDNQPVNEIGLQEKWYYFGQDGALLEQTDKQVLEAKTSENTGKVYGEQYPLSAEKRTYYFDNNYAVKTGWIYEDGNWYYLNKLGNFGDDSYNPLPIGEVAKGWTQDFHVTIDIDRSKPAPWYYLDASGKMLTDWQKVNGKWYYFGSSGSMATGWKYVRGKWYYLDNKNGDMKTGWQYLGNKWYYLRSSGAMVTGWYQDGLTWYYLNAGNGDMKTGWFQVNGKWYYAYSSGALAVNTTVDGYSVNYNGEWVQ
The experiment can be described thus: pull-down; only the target purified.

The target in another experiment is Nanoluc-Atg14 (human) (UniProt Q6ZNE5). The experiment can be described thus: FRET or BRET. (In general: In BRET a luciferase serves as donor, and the signal depends on an acceptor being close.)
Experiment [2] deals with T1, GST-CbpFR6 (Streptococcus pneumoniae R6). The experiment can be described thus: pull-down.
Experiment [3] concerns the target HA-Atg14 (stably expressed in MEFs) (human) (UniProt Q6ZNE5). The experiment can be described thus: co-IP.

Regarding “GFP-Atg14 full length (FL) (from UniProt Q6ZNE5 1-492)”, in experiment [1], the binding entry is listed as “binds”.
“HaloTag-Stx17 (from UniProt P56962 1-302)”: in the experiment with Nanoluc-Atg14 (human), the binding entry is reported as “binds”.
As for “recombinant 3Myc-Atg14 (expressed in E. coli) (from UniProt Q6ZNE5 1-492)”, in experiment [2], the binding result is “binds”.

B1: CbpFR6-FLAG (protein, UniProt Q8DR52 28-338)
chain: NTTGGRFVDKDNRKYYVKDDHKAIYWHKIDGKTYYFGDIGEMVVGWQYLEIPGTGYRDNLFDNQPVNEIGLQEKWYYFGQDGALLEQTDKQVLEAKTSENTGKVYGEQYPLSAEKRTYYFDNNYAVKTGWIYEDGNWYYLNKLGNFGDDSYNPLPIGEVAKGWTQDFHVTIDIDRSKPAPWYYLDASGKMLTDWQKVNGKWYYFGSSGSMATGWKYVRGKWYYLDNKNGDMKTGWQYLGNKWYYLRSSGAMVTGWYQDGLTWYYLNAGNGDMKTGWFQVNGKWYYAYSSGALAVNTTVDGYSVNYNGEWVQ
On to B1, for which the binding result in experiment [3] is recorded as “binds”.
